{"source": "patent EP1538162B1", "about": "“Compositions for altering mucus secretion” (NORTH CAROLINA STATE UNIVERSITY, priority 1999, dated 2012)", "format_in_all_cases": "cell-based", "key": {"[1]": {"test_system": "normal human bronchial epithelial (NHBE) cells", "test": "Mucin secretion stimulated by PMA + 8-Br-cGMP, air-liquid interface culture, mucus ELISA", "settings": "100 nM PMA plus 1 µM 8-Br-cGMP, 15 minutes"}, "[2]": {"test_system": "normal human bronchial epithelial (NHBE) cells", "test": "Basal (constitutive) mucin secretion, air-liquid interface culture, mucus ELISA", "settings": "100 µM peptide, one hour incubation, no PMA or 8-Br-cGMP"}, "[3]": {"test_system": "normal human bronchial epithelial (NHBE) cells", "test": "UTP-induced mucin secretion, air-liquid interface culture, mucus ELISA", "settings": "10 and 100 µM peptide; 15 minutes pre-incubation, 45 minutes co-incubation with 0.1 mM UTP"}}, "note": "Part of at least one peptide drawing is inferred or uncertain, most often the ends. Where a SMILES comes first, the peptide text is derived from it. The star is where a group is joined. Myristoyl = CCCCCCCCCCCCCC(=O)*"}
{"compound": "CCCCCCCCCCCCCC(=O)NCC(=O)N[C@@H](C)C(=O)N[C@@H](CCC(N)=O)C(=O)N[C@@H](Cc1ccccc1)C(=O)N[C@@H](CO)C(=O)N[C@@H](CCCCN)C(=O)N[C@H](C(=O)N[C@@H](C)C(=O)N[C@@H](C)C(=O)N[C@@H](CCCCN)C(=O)NCC(=O)N[C@@H](CCC(=O)O)C(=O)N[C@@H](C)C(=O)N[C@@H](C)C(=O)N[C@@H](C)C(=O)N[C@@H](CCC(=O)O)C(=O)N[C@@H](CCCNC(=N)N)C(=O)N1CCC[C@H]1C(=O)NCC(=O)N[C@@H](CCC(=O)O)C(=O)N[C@@H](C)C(=O)N[C@@H](C)C(=O)N[C@H](C(=O)N[C@@H](C)C(=O)O)C(C)C)[C@@H](C)O", "note": "[MANS peptide] (Myristoyl-GAQFSKTAAKGEAAAERPGEAAVA-OH)", "values": [{"measurement": "levels of secreted mucus (stimulated)", "setting": "[1]; 10 µM peptide", "value": "fell to control values"}, {"measurement": "levels of secreted mucus (stimulated)", "setting": "[1]; 100 µM peptide", "value": "well below control values"}, {"measurement": "increase in mucus secretion caused by PMA and 8-Br-cGMP", "setting": "[1]; pre- and co-incubation with peptide 1, 10 or 100 µM", "value": "blocked"}, {"measurement": "constitutive (basal) mucus secretion", "setting": "[2]", "value": "decrease constitutive (basal) mucus secretion"}, {"measurement": "UTP-stimulated mucus secretion", "setting": "[3]", "value": "significantly reduced"}]}
